Data set [1] concerns the target RecA (Escherichia coli BJ5183) (UniProt P0A7G6). The data set is described as follows: EMSA. As to conditions: 25 mM Tris pH 7.6, 1 mM MgCl2 (10 mM in supplementary assays), 1 mM DTT, 37 C, 10 min, 12 pmol X1 in 10 ul, 2% native agarose gel, recombinant protein, protein details: His tag (pET28a, Ni purification), single-stranded DNA. Background: A gel shift assay detects complexes by their altered migration in electrophoresis.

The chains behind the UniProt entries cited, without tags or fusion partners. Where a name states a change or a piece, a line headed by the entry shows the natural chain unless it says otherwise.
UniProt P0A7G6: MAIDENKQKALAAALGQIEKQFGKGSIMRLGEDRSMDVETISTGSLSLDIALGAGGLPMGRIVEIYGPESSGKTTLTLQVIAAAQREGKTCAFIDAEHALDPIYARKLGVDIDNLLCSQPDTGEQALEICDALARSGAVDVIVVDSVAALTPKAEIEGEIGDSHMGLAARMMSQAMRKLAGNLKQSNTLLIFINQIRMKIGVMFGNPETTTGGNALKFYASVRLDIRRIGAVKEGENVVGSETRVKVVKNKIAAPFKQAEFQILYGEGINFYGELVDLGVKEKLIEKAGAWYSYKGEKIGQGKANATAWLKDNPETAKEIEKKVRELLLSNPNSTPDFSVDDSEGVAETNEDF
UniProt P0AGE0: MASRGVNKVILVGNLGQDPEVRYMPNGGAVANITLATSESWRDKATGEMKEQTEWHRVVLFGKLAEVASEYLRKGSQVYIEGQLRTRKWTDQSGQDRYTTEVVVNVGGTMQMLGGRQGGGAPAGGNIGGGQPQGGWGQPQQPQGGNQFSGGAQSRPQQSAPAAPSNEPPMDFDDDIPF

Data set [2] deals with SSB (Escherichia coli BJ5183) (UniProt P0AGE0). As to the kind of experiment: EMSA. The following applies: 10 mM Mg2+, 10-640 pmol SSB; 25 mM Tris pH 7.6, 1 mM MgCl2 (10 mM in supplementary assays), 1 mM DTT, 37 C, 10 min, 12 pmol X1 in 10 ul; 2% native agarose gel; recombinant protein; protein details: His tag (pET28a, Ni purification); single-stranded DNA.

For at least one entry, the source does not settle the construct or the ends of the probe. For part of these data: A negative result means that nothing was seen under these conditions. For part of these data: At least one verdict rests on a figure or table, not on a statement of the authors.

As to “TACGTTAACAAAAAGTCAGATATGGACCTTGCTGCTAAAGGTCTAGGAGCTAAA [X1 (54 nt)]”, the binding result is given as “no binding” in data set [1] (ADP (RecA disassembles)); “no binding” in data set [1] (ATP (hydrolysed to ADP, RecA disassembles)); “binds” in data set [2].

The values are drawn from PMC5043356.
